In article PMC11111408, “Concurrent inhibition of oncogenic and wild-type RAS-GTP for cancer therapy” (Nature, 2024):
The source gives many values for each of these; only a part stands here.

System: PRISM DNA-barcoded human tumour cell lines
Assay: PRISM pooled cell viability assay;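 note: 8 threefold dilutions from 10 µM with 5 days of exposure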
Format: cell-based
Parameters: Area under the curve (AUC): scale not given here
Protocol: Cells were then lysed in TCL mRNA lysis buffer, and then PCR with reverse transcription was performed. Detection of the barcodes and univariate and multivariate analysis was then performed as previously described. Data analysis is described in the Supplementary Methods. Up-to-date code for our analysis is at the github link: https://github.com/cmap/dockerized_mts.
For every gene with non-silent mutations in at least four cell-lines, we compared the AUC values between cells with and without those mutations using a t-test. This analysis was carried out for: (i) the full dataset; (ii) excluding cell lines with non-silent KRAS mutations; and (iii) excluding cell lines that have either KRAS or NRAS non-silent mutations.

CCn1c(-c2cc(N3CCN(C4CC4)CC3)cnc2[C@H](C)OC)c2c3cc(ccc31)-c1csc(n1)C[C@H](NC(=O)[C@H]1[C@@H]3COC[C@@H]31)C(=O)N1CCC[C@H](N1)C(=O)OCC(C)(C)C2 [RMC-7977]
Area under the curve (AUC) (8MGBA_CENTRAL_NERVOUS_SYSTEM): 0.9042 | Area under the curve (AUC) (22RV1_PROSTATE): 0.9273 | Area under the curve (AUC) (93T449_SOFT_TISSUE): 0.8906 | Area under the curve (AUC) (94T778_SOFT_TISSUE): 0.6572 | Area under the curve (AUC) (95T1000_SOFT_TISSUE): 0.5675 | Area under the curve (AUC) (143B_BONE): 0.5521 | Area under the curve (AUC) (253J_URINARY_TRACT): 0.787 | Area under the curve (AUC) (921_UVEA): 0.7581 | Area under the curve (AUC) (1618K_TESTIS): 0.7204 | Area under the curve (AUC) (1777NRPMET_TESTIS): 0.8773 | Area under the curve (AUC) (8505C_THYROID): 0.9978 | Area under the curve (AUC) (9505BIK_PANCREAS): 0.2525 | Area under the curve (AUC) (2313287_STOMACH): 0.6455 | Area under the curve (AUC) (A3KAW_HAEMATOPOIETIC_AND_LYMPHOID_TISSUE): 0.4846 | PRISM AUC (A3KAW_HAEMATOPOIETIC_AND_LYMPHOID_TISSUE, KRAS WT): 0.512 | Area under the curve (AUC) (A101D_SKIN): 0.9331 | PRISM AUC (A101D_SKIN, KRAS WT): 0.8318 | Area under the curve (AUC) (A172_CENTRAL_NERVOUS_SYSTEM): 0.863 | PRISM AUC (A172_CENTRAL_NERVOUS_SYSTEM, KRAS WT): 0.8873 | Area under the curve (AUC) (A204_SOFT_TISSUE): 0.7045 | Area under the curve (AUC) (A253_SALIVARY_GLAND): 0.4696 | PRISM AUC (A253_SALIVARY_GLAND, KRAS WT): 0.2994 | Area under the curve (AUC) (A375_SKIN): 0.8561 | PRISM AUC (A375_SKIN, KRAS WT): 0.8721 | Area under the curve (AUC) (A388_SKIN): 0.4368 | Area under the curve (AUC) (A427_LUNG): 0.4665 | Area under the curve (AUC) (A498_KIDNEY): 0.6699 | PRISM AUC (A498_KIDNEY, KRAS WT): 0.6684 | Area under the curve (AUC) (A549_LUNG): 0.6015 | Area under the curve (AUC) (A673_BONE): 0.9239 | PRISM AUC (A673_BONE, KRAS WT): 1 | Area under the curve (AUC) (A704_KIDNEY): 1 | PRISM AUC (A704_KIDNEY, KRAS WT): 0.906 | Area under the curve (AUC) (A1207_CENTRAL_NERVOUS_SYSTEM): 0.9954 | PRISM AUC (A1207_CENTRAL_NERVOUS_SYSTEM, KRAS WT): 0.9848 | Area under the curve (AUC) (A2058_SKIN): 0.7259 | PRISM AUC (A2058_SKIN, KRAS WT): 0.6601 | Area under the curve (AUC) (A2780_OVARY): 0.7059 | PRISM AUC (A2780_OVARY, KRAS WT): 0.5832 | Area under the curve (AUC) (ABC1_LUNG): 0.8026 | PRISM AUC (ABC1_LUNG, KRAS WT): 0.8614 | Area under the curve (AUC) (ACCMESO1_PLEURA): 0.6684 | PRISM AUC (ACCMESO1_PLEURA, KRAS WT): 0.7692 | Area under the curve (AUC) (ACHN_KIDNEY): 0.5903 | PRISM AUC (ACHN_KIDNEY, KRAS WT): 0.4579 | Area under the curve (AUC) (AGS_STOMACH): 0.4566 | Area under the curve (AUC) (ALLSIL_HAEMATOPOIETIC_AND_LYMPHOID_TISSUE): 0.8419 | Area under the curve (AUC) (AM38_CENTRAL_NERVOUS_SYSTEM): 0.8647 | PRISM AUC (AM38_CENTRAL_NERVOUS_SYSTEM, KRAS WT): 0.8345 | Area under the curve (AUC) (AMO1_HAEMATOPOIETIC_AND_LYMPHOID_TISSUE): 0.813 | PRISM AUC (AMO1_HAEMATOPOIETIC_AND_LYMPHOID_TISSUE, KRAS MUT): 0.6859 | Area under the curve (AUC) (AN3CA_ENDOMETRIUM): 0.5907 | PRISM AUC (AN3CA_ENDOMETRIUM, KRAS WT): 0.5419 | Area under the curve (AUC) (ANGMCSS_CENTRAL_NERVOUS_SYSTEM): 0.8905 | Area under the curve (AUC) (ASPC1_PANCREAS): 0.4861 | Area under the curve (AUC) (AU565_BREAST): 0.8808 | PRISM AUC (AU565_BREAST, KRAS WT): 0.8923 | Area under the curve (AUC) (BC3C_URINARY_TRACT): 0.7115 | PRISM AUC (BC3C_URINARY_TRACT, KRAS WT): 0.5008 | Area under the curve (AUC) (BCPAP_THYROID): 0.8173 | PRISM AUC (BCPAP_THYROID, KRAS WT): 0.8406 | Area under the curve (AUC) (BDCM_HAEMATOPOIETIC_AND_LYMPHOID_TISSUE): 0.8218 | Area under the curve (AUC) (BECKER_CENTRAL_NERVOUS_SYSTEM): 0.6729 | Area under the curve (AUC) (BEN_LUNG): 0.8006 | PRISM AUC (BEN_LUNG, KRAS WT): 0.6084 | Area under the curve (AUC) (BFTC905_URINARY_TRACT): 0.5049 | PRISM AUC (BFTC905_URINARY_TRACT, KRAS WT): 0.3728 | Area under the curve (AUC) (BFTC909_KIDNEY): 0.7912 | PRISM AUC (BFTC909_KIDNEY, KRAS WT): 0.814 | Area under the curve (AUC) (BHT101_THYROID): 0.8712 | PRISM AUC (BHT101_THYROID, KRAS WT): 0.8105 | Area under the curve (AUC) (BHY_UPPER_AERODIGESTIVE_TRACT): 0.6061 | PRISM AUC (BHY_UPPER_AERODIGESTIVE_TRACT, KRAS WT): 0.5449 | Area under the curve (AUC) (BICR6_UPPER_AERODIGESTIVE_TRACT): 0.48 | PRISM AUC (BICR6_UPPER_AERODIGESTIVE_TRACT, KRAS WT): 0.3797 | Area under the curve (AUC) (BICR16_UPPER_AERODIGESTIVE_TRACT): 0.6188 | PRISM AUC (BICR16_UPPER_AERODIGESTIVE_TRACT, KRAS WT): 0.3298 | Area under the curve (AUC) (BICR18_UPPER_AERODIGESTIVE_TRACT): 0.7129 | Area under the curve (AUC) (BICR22_UPPER_AERODIGESTIVE_TRACT): 0.7071 | PRISM AUC (BICR22_UPPER_AERODIGESTIVE_TRACT, KRAS WT): 0.5898 | Area under the curve (AUC) (BICR31_UPPER_AERODIGESTIVE_TRACT): 0.6329 | PRISM AUC (BICR31_UPPER_AERODIGESTIVE_TRACT, KRAS WT): 0.4708 | Area under the curve (AUC) (BICR56_UPPER_AERODIGESTIVE_TRACT): 0.4371 | PRISM AUC (BICR56_UPPER_AERODIGESTIVE_TRACT, KRAS WT): 0.3236 | Area under the curve (AUC) (BICR78_UPPER_AERODIGESTIVE_TRACT): 0.4728 | Area under the curve (AUC) (BL2_HAEMATOPOIETIC_AND_LYMPHOID_TISSUE): 0.5494 | Area under the curve (AUC) (BLUE1_HAEMATOPOIETIC_AND_LYMPHOID_TISSUE): 0.9088 | Area under the curve (AUC) (BOKU_CERVIX): 0.6867 | Area under the curve (AUC) (BONNA12_HAEMATOPOIETIC_AND_LYMPHOID_TISSUE): 0.5933 | Area under the curve (AUC) (BT12_SOFT_TISSUE): 0.5415 | Area under the curve (AUC) (BT16_SOFT_TISSUE): 0.6423 | Area under the curve (AUC) (BT474_BREAST): 0.8249 | PRISM AUC (BT474_BREAST, KRAS WT): 0.7734 | Area under the curve (AUC) (BT549_BREAST): 0.8194 | PRISM AUC (BT549_BREAST, KRAS WT): 0.982 | Area under the curve (AUC) (BV173_HAEMATOPOIETIC_AND_LYMPHOID_TISSUE): 0.4807 | PRISM AUC (BV173_HAEMATOPOIETIC_AND_LYMPHOID_TISSUE, KRAS WT): 0.3865 | Area under the curve (AUC) (BXPC3_PANCREAS): 0.9101 | PRISM AUC (BXPC3_PANCREAS, KRAS WT): 0.9333 | Area under the curve (AUC) (C4I_CERVIX): 0.6719 | Area under the curve (AUC) (C32_SKIN): 0.8084 | PRISM AUC (C32_SKIN, KRAS WT): 0.9007 | Area under the curve (AUC) (C33A_CERVIX): 0.9001 | Area under the curve (AUC) (C75_LARGE_INTESTINE): 0.9092 | Area under the curve (AUC) (C80_LARGE_INTESTINE): 0.5375 | Area under the curve (AUC) (C8166_HAEMATOPOIETIC_AND_LYMPHOID_TISSUE): 0.6874 | Area under the curve (AUC) (CADOES1_BONE): 0.9606 | PRISM AUC (CADOES1_BONE, KRAS WT): 0.9865 | Area under the curve (AUC) (CAKI1_KIDNEY): 0.7867 | PRISM AUC (CAKI1_KIDNEY, KRAS WT): 0.6399 | Area under the curve (AUC) (CAL12T_LUNG): 0.6265 | PRISM AUC (CAL12T_LUNG, KRAS WT): 0.5623 | Area under the curve (AUC) (CAL27_UPPER_AERODIGESTIVE_TRACT): 0.5135 | PRISM AUC (CAL27_UPPER_AERODIGESTIVE_TRACT, KRAS WT): 0.3039 | Area under the curve (AUC) (CAL29_URINARY_TRACT): 0.4956 | PRISM AUC (CAL29_URINARY_TRACT, KRAS WT): 0.3744 | Area under the curve (AUC) (CAL33_UPPER_AERODIGESTIVE_TRACT): 0.5486 | PRISM AUC (CAL33_UPPER_AERODIGESTIVE_TRACT, KRAS WT): 0.3871
